Broadly, the AC50 is the midpoint of the concentration-response curve, whichever way the signal moves.

Molecules are shown by their SMILES. “And” between values parts separate entries of the source, which are not always exact repeats. Equal values may be shown once. The list shows a part of the results. Shown are side measurements of this screen, not its main read-out; they come without a call. The list favours compounds with an active or inconclusive main result. The note in brackets gives the kind of curve behind each potency; many fits are weak.

The nature of the test: Cell signaling CRE-BLA (Fsk stim). To be noted: CHO CRE-bla reporter (cAMP response element driving beta-lactamase), forskolin EC10, beta-lactamase ratio; measured here: 460 nm blue channel. The method in brief:
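CHO CRE-bla cells, overnight plating in Opti-MEM with 0.5% dialyzed FBS; cpd titration + EC10 NKH 477, 3 h 37 °C; CCF4 2 h RT; ex 405/em 460 vs 530 ratio → %Activity, AC50.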
For the molecule `Cc1cc(NC(=O)CSc2nc3c(c(=O)n2-c2ccc(Br)cc2)SCC3)no1`, the concentration at half-maximal activity (AC50) is 3.98 µM [rising, single point].
Then `Cc1cccc2nc(=S)n(C(=O)c3ccco3)n12`, with 25.1 µM [rising, single point]; and `COC(=O)C1=CN(C)C=C(C(=O)OC)C1c1ccc(Cl)cc1Cl`, with 12.6 µM [rising, partial curve]; and `COc1ccc(CCNC(=O)C2CCN(C(=O)N(C)C)CC2)cc1OC`, with 25.1 µM [rising, single point].
The result for `O=C(C1CC1)N1CCc2cc(S(=O)(=O)NCCC3=CCCCC3)ccc21` reads 12.6 µM [rising, single point]; that for `CCc1ccc2c(c1)c1nc(C)sc1n2CC`, 6.31 µM [falling, full curve, poor fit].
Then `COC(=O)c1ccc(COC(=O)c2c(C)nn(Cc3ccccc3Cl)c2Cl)o1`, with 25.1 µM [falling, single point]; and `Cn1c(=O)c(=O)n(C)c2cc(S(=O)(=O)N3CCc4ccccc43)ccc21`, with 2 µM [falling, single point].
For `N#Cc1c(C(F)(F)F)cc(-c2ccco2)nc1SCc1ccccn1`, the AC50 is 12.6 µM [rising, partial curve].
The result for `COc1ccc(S(=O)(=O)N2CC(O)CC2C(=O)OCC(=O)Nc2ccc(Cl)cn2)cc1` (configuration not stated) reads 3.98 µM [falling, partial curve, poor fit]; that for `c1ccc2c(c1)nc(NC1CCCCC1)c1nncn12`, 12.6 µM [rising, partial curve].
The result for `CCCCCn1c(=NC(C)=O)c(C#N)cc2c(=O)n3cccc(C)c3nc21` reads 5.01 µM [rising, partial curve]; that for `COc1ccc(CCNC(=O)CCN2C(=O)C3CC=CCC3C2=O)cc1OC` (configuration not stated), 25.1 µM [rising, single point]; that for `Cn1c(SCc2nc3ccccc3[nH]2)nnc1-c1cccnc1`, 25.1 µM [rising, single point].
The result for `COc1ccc(N2CCN(C(=O)c3ccc(NS(=O)(=O)c4ccc(F)cc4)cc3)CC2)cc1` reads 5.01 µM [falling, single point]; that for `CC1CC(C)(C)Nc2ccc(OC(=O)c3ccco3)cc21` (configuration not stated), 12.6 µM [falling, single point]; that for `Cc1cccc(NC(=O)CCN2C(=O)C3C4C=CC(C4)C3C2=O)n1` (configuration not stated), 0.0501 µM [falling, full curve, poor fit].
On to `CCN1c2ccccc2-c2nc3ccccc3n2C1c1ccncc1` (configuration not stated), for which the AC50 is 7.94 µM [rising, partial curve].
Then `CCCc1cc(N2CCCC2)n2nc(C)c(-c3ccccc3)c2n1`, with 1.26 µM [rising, full curve].
The result for `CC(=O)c1c(COC(=O)c2ccco2)nc2ccccc2[n+]1[O-]` reads 15.8 µM [falling, partial curve].
The result for `CCOC(=O)c1cnc(-n2nc(C)cc2C)nc1N(CC)CC` reads 25.1 µM [rising, single point].
As for `O=S(=O)(c1cccs1)N1CN(CC2CCCO2)c2nc3ccccc3nc21` (configuration not stated), the AC50 was 1.26 µM [rising, full curve].
Then `O=c1cc(CSc2nnc(COc3ccc(Cl)cc3)o2)c2ccccc2[nH]1`, with 10 µM [rising, single point].
With `COc1ccc(CNC(=O)C(C#N)c2nc3ccccc3nc2N2CCN(C)CC2)cc1` (configuration not stated), the concentration at half-maximal activity (AC50) was 0.316 µM [rising, full curve].
For the molecule `O=c1oc2c(CN3CCCCCC3)c(O)ccc2cc1-c1nc2ccccc2[nH]1`, the AC50 is 7.94 µM [rising, partial curve].
Then `Cc1nc2cncnc2n(Cc2ccccc2)c1=O`, with 12.6 µM [rising, single point].
The result for `Cc1ccc(-c2nc(NC(=O)CSc3nnc4scc(-c5ccccc5)n34)ns2)cc1` reads 3.16 µM [rising, full curve]; that for `CC(C)c1cc(C(N)=O)c(NC(=O)C2CCC2)s1`, 12.6 µM [rising, partial curve].
Turning to `O=C(Nc1ccc(Cl)cc1C(=O)NCC1CCCO1)c1ccco1` (configuration not stated), the AC50 was 12.6 µM [rising, single point].
The result for `C=CCn1c(N2CCCCCC2)nc2c1c(=O)[nH]c(=O)n2C` reads 25.1 µM [rising, single point].
As for `CN1CCc2c(sc3c2C(=O)NC(c2ccco2)N3)C1` (configuration not stated), the AC50 was 12.6 µM [rising, partial curve].
The result for `CCOc1ncccc1C(=O)NCC1COc2ccccc2O1` (configuration not stated) reads 12.6 µM [rising, partial curve].
The result for `O=c1c2cccc3c(N4CCOCC4)ccc(c32)c2nc3ccccc3n12` reads 2 µM [falling, full curve]; that for `CC(=O)Nc1ccc(Cc2ccc3[nH]c(=O)cc(C)c3c2)cc1`, 5.01 µM [rising, single point]; that for `COc1ccc(-c2cc(C(F)(F)F)n3nc(C(=O)NCc4ccco4)cc3n2)cc1`, 12.6 µM [rising, partial curve].
The result for `COc1ccc(C2C(C(=O)N3CCN(c4ccccc4)CC3)c3ccccc3C(=O)N2C)cc1OC` (configuration not stated) reads 0.00316 µM [falling, full curve, poor fit]; that for `O=C(O)CSc1nc(-c2ccccc2)nc2c1oc1ccccc12`, 5.01 µM [rising, partial curve]; that for `CC1CCCC(NC(=O)CN2CCN(Cc3ccc(Cl)cc3)C2=O)C1C` (configuration not stated), 12.6 µM [rising, partial curve, poor fit].
For the molecule `N#CCCn1c(=O)c(-c2cc(F)cc(F)c2)nc2cnc(N3CCOCC3)nc21`, the AC50 is 12.6 µM [rising, partial curve].
The result for `Cc1nc(SCC(=O)Nc2ccc(F)cc2)c2oc3ccccc3c2n1` reads 0.316 µM [rising, full curve].
In the case of `O=c1c(-c2ccc(F)cc2)nc2cnc(N3CCNCC3)nc2n1Cc1cccs1`, the concentration at half-maximal activity (AC50) was 1.58 µM [rising, full curve].
For `COCCn1cc(C(=O)NCc2cccs2)c2c3ccccc3n(C)c2c1=O`, the AC50 is 3.16 µM [rising, partial curve].
Consider `Cc1ccc(Nc2cc(C)nn2-c2nc(C)cc(C)n2)cc1`, for which the AC50 was 15.8 µM [rising, single point].
For the molecule `CCN(CCCn1c(=S)[nH]c2ncccc2c1=O)c1ccccc1`, the half-maximal activity concentration (AC50) was 0.126 µM [rising, partial curve].
The result for `CC1CCCCN1S(=O)(=O)c1ccc2c(c1)CCN2C(=O)C1CCC1` (configuration not stated) reads 10 µM [rising, single point].
Consider `O=C(Nc1nccs1)C1CCCN(S(=O)(=O)c2cccc3cccnc23)C1` (configuration not stated), for which the AC50 was 25.1 µM [falling, single point].
With `OC(COc1ccc(Cl)cc1)CN1C2=NCCCN2c2ccccc21` (configuration not stated), the AC50 is 25.1 µM [falling, single point].
Take `CCOc1ccccc1NC(=O)N1CCC(NC(=O)c2cccc(C)c2)CC1`: the AC50 was 0.501 µM [falling, partial curve].
Then `CCCOc1nc2c(c(=O)n(C)c(=O)n2C)n1CCC`, with 12.6 µM [rising, partial curve]; and `Cc1cccc2nc(Cn3c(=O)n(CCC(=O)NCc4ccco4)c(=O)c4sccc43)cc(=O)n12`, with 10 µM [rising, single point].
The result for `Cc1ccc2oc(NC(=O)N3CCOCC3)cc(=O)c2c1` reads 0.398 µM [rising, full curve]; that for `CCOC(=O)c1ccc2c(c1)C1C=CCC1C(C(=O)O)N2` (configuration not stated), 12.6 µM [falling, single point].
Then `CCNc1nc2c(c(=O)n(Cc3ccccc3)c(=O)n2C)n1Cc1ccccc1`, with 12.6 µM [rising, single point]; and `N#CCCn1c(=O)c(-c2cc(F)cc(F)c2)nc2cnc(OCc3ccccc3)nc21`, with 12.6 µM [rising, partial curve]; and `COc1ccc(-c2nc3cnc(N(C)C)nc3n(C[C@H]3CCCO3)c2=O)cc1`, with 2 µM [rising, full curve].
As to `O=C1c2ccccc2CC1Sc1nnc(-c2ccccn2)o1` (configuration not stated), the AC50 was 6.31 µM [falling, partial curve].
Then `Cc1ccc(C2C=C(c3ccccc3OC(F)F)Nc3ncnn32)cc1` (configuration not stated), with 25.1 µM [rising, single point].
Turning to `CCOC(=O)c1[nH]c(=O)[nH]c1CSCCO`, the concentration at half-maximal activity (AC50) is 0.501 µM [rising, partial curve].
As to `O=C(CSc1nnnn1C1CCCC1)N1CCN(C(=O)c2ccco2)CC1`, the AC50 was 2.51 µM [rising, single point].
Then `Cc1ccc(S(=O)(=O)c2c(C)nn(C(C)(C)C)c2OC(=O)c2ccco2)cc1`, with 12.6 µM [falling, single point]; and `CC(C)NC[C@@H](O)COc1cccc2[nH]ccc12`, with 12.6 µM [falling, single point] and 31.6 µM [falling, single point].
The result for `CCCC(C(=O)NCc1ccc(OC)cc1)N(Cc1ccco1)C(=O)c1snc(C(N)=O)c1N` (configuration not stated) reads 5.01 µM [falling, single point]; that for `CCN=c1sc(C(=O)NCCc2ccccc2)cc(=O)n1CC`, 1 µM [rising, full curve, poor fit].
The result for `CCOC(=O)C1CCN(C(=O)Nc2ccc(NC(=O)C3CCN(C(=O)OCC)CC3)cc2)CC1` reads 5.01 µM [rising, single point].
Turning to `COC(=O)/C=C(\C)NC(=O)c1cccs1`, the concentration at half-maximal activity (AC50) is 15.8 µM [rising, single point].
The result for `COC(=O)c1ccc(Oc2nc(Nc3ccc(F)cc3)nc(N3CCCC3)n2)cc1` reads 2 µM [rising, full curve].
In the case of `CC(C)n1nc(C(=O)OCC(=O)N(C)C2CCS(=O)(=O)C2)c2ccccc2c1=O` (configuration not stated), the AC50 is 12.6 µM [falling, partial curve, poor fit].

The record behind these values is PubChem BioAssay AID662 (National Center for Advancing Translational Sciences (NCATS), 2007).
